Source: the supplement of paper PMC11732987, “Enantioselective OTUD7B fragment discovery through chemoproteomics screening and high-throughput optimisation” (Communications Chemistry, 2025)
The list shows a part of the results. The data scatter; read single values as rough.

The chains behind the UniProt entries cited, without tags or fusion partners. Where a name states a change or a piece, a line headed by the entry shows the natural chain unless it says otherwise. Residues count along the entry.
UniProt O43172: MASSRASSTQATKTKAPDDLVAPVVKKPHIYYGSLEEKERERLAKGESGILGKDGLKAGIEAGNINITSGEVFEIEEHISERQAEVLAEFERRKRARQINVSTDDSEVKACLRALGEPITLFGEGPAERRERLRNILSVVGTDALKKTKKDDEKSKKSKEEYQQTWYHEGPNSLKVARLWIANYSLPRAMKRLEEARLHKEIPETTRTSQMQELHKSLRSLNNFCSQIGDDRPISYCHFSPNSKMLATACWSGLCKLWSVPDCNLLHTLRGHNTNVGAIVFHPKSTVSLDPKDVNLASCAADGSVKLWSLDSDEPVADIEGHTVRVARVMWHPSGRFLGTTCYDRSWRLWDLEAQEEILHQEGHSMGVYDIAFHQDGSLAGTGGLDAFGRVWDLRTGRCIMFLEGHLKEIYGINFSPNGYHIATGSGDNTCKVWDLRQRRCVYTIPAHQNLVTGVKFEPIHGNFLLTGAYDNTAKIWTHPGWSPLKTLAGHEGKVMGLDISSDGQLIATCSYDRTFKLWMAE
UniProt Q96CD2, 171-190: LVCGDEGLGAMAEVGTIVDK
UniProt P78527, whole entry, looked up: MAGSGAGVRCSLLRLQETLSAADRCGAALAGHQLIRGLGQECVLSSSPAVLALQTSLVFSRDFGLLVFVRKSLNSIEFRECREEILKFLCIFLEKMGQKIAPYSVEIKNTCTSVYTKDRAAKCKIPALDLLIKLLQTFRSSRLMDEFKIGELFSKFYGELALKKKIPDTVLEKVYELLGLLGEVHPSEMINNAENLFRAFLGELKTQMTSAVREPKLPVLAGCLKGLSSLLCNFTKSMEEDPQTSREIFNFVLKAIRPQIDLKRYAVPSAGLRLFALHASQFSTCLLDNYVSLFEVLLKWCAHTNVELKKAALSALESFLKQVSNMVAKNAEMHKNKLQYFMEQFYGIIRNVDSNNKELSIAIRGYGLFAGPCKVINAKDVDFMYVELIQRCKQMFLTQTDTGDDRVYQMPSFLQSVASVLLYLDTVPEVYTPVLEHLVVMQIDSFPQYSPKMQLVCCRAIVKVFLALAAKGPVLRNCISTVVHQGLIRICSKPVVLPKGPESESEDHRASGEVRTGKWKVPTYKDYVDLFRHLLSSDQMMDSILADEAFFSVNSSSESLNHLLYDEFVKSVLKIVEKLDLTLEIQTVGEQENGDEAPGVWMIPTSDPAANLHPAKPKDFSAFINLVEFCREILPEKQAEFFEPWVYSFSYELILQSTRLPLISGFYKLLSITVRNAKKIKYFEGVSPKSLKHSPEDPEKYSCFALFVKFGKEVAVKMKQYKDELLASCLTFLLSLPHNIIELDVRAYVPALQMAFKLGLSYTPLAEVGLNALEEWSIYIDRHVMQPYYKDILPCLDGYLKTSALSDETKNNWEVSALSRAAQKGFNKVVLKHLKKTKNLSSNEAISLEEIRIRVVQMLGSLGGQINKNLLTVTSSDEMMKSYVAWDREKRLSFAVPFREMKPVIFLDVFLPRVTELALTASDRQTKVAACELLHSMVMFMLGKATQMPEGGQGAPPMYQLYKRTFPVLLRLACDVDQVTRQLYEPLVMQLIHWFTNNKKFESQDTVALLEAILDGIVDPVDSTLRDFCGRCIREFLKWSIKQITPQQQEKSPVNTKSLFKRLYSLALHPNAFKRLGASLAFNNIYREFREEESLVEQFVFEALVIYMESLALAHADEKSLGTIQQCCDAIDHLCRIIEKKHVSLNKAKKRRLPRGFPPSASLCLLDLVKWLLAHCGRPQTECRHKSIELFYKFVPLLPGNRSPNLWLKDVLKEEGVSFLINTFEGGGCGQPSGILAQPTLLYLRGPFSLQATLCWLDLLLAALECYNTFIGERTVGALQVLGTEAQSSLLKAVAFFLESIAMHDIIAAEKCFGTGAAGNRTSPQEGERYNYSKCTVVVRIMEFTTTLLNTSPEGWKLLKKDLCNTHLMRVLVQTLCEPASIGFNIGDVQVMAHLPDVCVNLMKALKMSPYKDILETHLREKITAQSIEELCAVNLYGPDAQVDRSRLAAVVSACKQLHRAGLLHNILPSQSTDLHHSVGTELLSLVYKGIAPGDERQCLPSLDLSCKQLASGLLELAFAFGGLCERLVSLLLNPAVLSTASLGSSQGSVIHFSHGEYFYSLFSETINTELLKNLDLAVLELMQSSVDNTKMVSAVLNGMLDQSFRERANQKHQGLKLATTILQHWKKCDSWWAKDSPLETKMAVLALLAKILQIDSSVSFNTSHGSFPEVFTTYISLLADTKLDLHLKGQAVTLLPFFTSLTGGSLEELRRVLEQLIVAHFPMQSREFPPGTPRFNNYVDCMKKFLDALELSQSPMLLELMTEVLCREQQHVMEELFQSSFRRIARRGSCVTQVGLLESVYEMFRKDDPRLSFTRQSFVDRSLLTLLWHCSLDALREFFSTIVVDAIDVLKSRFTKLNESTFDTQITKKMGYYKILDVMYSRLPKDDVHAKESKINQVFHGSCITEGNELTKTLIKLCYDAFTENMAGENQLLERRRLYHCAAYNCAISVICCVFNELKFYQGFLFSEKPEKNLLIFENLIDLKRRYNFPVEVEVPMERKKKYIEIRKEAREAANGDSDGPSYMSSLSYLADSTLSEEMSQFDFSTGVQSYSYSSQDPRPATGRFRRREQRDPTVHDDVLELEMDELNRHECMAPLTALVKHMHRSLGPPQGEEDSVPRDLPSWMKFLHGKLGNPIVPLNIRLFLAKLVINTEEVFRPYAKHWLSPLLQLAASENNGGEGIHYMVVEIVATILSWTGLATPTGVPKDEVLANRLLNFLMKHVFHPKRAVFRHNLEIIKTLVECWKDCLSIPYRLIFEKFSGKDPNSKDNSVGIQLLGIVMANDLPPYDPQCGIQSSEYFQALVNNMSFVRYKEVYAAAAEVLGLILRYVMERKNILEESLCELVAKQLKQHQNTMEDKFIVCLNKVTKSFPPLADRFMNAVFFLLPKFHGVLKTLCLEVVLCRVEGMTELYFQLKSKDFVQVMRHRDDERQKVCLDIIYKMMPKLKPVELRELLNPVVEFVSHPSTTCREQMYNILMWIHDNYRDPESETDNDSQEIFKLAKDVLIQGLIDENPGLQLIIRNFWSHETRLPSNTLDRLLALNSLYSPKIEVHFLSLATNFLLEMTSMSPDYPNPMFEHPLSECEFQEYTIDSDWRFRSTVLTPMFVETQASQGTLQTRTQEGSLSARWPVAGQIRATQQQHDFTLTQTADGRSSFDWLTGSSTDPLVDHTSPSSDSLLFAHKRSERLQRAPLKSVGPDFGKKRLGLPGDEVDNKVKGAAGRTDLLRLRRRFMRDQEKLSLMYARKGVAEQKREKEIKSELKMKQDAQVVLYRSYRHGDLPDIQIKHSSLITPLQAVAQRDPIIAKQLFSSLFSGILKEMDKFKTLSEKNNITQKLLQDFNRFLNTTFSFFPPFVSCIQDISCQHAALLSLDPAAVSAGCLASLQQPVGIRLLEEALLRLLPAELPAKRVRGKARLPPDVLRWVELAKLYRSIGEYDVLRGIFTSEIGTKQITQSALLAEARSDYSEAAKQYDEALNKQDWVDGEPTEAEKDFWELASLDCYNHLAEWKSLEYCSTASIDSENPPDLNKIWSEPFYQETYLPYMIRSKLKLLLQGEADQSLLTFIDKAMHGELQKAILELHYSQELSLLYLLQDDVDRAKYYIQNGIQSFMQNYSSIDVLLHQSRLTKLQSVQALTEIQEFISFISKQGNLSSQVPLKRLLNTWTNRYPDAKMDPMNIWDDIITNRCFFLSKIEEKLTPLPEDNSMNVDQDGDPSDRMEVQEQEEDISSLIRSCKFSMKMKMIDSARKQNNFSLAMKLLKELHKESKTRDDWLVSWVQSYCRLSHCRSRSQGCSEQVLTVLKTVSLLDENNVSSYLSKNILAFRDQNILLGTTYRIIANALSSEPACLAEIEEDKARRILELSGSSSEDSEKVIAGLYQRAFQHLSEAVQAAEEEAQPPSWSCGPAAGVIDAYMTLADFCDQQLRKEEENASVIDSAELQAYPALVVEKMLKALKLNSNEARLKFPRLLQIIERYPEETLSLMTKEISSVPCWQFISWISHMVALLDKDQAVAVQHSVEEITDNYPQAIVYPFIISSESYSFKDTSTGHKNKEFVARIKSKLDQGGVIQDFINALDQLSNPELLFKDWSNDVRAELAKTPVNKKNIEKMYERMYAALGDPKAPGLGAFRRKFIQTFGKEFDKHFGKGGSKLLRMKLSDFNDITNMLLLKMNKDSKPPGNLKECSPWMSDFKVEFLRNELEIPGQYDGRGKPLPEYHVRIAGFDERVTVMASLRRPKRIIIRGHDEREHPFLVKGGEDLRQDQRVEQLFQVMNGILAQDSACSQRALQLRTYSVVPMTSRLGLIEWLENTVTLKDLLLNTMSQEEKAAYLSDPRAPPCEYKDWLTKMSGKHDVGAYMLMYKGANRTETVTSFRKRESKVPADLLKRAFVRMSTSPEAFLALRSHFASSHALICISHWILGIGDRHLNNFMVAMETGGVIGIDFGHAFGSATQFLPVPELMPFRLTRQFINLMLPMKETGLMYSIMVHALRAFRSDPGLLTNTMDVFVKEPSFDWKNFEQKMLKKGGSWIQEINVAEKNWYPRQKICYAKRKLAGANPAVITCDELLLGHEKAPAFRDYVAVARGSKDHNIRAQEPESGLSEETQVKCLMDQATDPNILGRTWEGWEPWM
UniProt Q5H9R7, 822-843: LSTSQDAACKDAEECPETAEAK
UniProt O14802: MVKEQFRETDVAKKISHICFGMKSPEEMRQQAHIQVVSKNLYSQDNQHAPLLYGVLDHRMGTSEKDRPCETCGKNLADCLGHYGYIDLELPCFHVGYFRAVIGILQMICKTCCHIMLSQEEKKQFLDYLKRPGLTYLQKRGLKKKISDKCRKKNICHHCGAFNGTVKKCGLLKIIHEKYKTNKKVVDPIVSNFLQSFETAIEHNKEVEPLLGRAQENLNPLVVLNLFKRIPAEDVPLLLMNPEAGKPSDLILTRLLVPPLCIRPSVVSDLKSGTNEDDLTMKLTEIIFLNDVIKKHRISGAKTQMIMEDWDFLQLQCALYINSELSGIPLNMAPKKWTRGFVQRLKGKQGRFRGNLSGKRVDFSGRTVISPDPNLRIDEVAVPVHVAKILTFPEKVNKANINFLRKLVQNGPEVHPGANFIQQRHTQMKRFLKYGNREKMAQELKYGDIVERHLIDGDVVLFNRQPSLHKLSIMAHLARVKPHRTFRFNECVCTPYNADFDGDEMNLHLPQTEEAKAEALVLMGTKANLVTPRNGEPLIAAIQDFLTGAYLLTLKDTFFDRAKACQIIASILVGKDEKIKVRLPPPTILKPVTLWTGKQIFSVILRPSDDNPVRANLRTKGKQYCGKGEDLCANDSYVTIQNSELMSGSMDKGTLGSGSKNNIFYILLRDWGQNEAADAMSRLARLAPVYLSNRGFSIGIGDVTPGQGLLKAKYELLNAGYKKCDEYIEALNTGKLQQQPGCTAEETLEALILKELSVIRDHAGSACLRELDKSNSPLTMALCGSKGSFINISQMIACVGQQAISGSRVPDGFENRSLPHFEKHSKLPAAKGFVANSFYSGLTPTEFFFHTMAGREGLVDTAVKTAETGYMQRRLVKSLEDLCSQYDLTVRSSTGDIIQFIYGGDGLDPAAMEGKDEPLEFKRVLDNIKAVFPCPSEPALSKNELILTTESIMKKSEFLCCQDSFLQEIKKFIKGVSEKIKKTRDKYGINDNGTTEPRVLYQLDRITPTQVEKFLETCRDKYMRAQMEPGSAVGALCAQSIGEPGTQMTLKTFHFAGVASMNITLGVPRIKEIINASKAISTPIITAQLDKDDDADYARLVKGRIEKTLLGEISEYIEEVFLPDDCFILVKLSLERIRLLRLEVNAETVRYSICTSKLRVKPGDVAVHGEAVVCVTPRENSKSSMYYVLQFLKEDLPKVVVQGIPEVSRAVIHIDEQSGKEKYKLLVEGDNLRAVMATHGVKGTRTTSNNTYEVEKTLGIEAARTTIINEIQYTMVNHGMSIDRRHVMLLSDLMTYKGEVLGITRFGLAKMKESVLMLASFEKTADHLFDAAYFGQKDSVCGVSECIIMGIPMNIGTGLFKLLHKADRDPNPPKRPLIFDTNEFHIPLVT
UniProt P49643: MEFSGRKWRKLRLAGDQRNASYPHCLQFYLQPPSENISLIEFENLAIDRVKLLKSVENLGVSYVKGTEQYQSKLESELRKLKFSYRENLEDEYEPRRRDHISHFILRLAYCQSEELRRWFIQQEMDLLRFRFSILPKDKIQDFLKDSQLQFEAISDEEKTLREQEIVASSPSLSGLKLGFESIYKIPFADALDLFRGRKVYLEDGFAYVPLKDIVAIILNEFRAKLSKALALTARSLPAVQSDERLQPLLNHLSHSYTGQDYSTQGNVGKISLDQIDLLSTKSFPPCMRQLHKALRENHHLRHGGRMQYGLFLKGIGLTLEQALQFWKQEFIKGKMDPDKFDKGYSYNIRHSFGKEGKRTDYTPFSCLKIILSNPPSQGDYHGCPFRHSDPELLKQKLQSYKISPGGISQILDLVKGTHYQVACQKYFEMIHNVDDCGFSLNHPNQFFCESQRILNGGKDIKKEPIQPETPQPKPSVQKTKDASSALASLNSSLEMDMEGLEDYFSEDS

What was measured:
[1] = compound: ClCC(=O)N[C@@H]1CCCc2ccccc12; test: log2 mean competition ratio of IA-DTB cysteine labelling (DMSO/compound) (log2 ratio); higher = stronger cysteine engagement by compound; settings: treatment time: 4 h, cell line lysate: HEK293T
Description: (§1)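 IA-DTB competitive cysteine chemoproteomics in HEK293T RIPA lysate. Lysates were treated with compound 29 or 30 at 50 or 200 µM for 4 h, then IA-DTB (500 µM, 1 h), trypsin-digested, NeutrAvidin-enriched and analysed by diaPASEF. Competition ratio = intensity DMSO / intensity compound (n=4 treated, n=64 DMSO); binding: mean log2 CR ≥ 1 and p ≤ 0.05 plus QC filters. Target is the cysteine site.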

[2] = compound: ClCC(=O)N[C@H]1CCCc2ccccc12; test: as above; settings: treatment time: 4 h, cell line lysate: HEK293T
Description: as §1

In the case of PRKCB C488 (UniProt P05771), the “log2 mean competition ratio” value ([1]; 50 µM) is reported as -0.0883, the “log2 mean competition ratio” value ([1]; 200 µM) is reported as 0.22 and the “log2 mean competition ratio” value ([2]; 50 µM) is reported as 0.105. For the same target, the “log2 mean competition ratio” value ([2]; 200 µM) was 0.246.
POLR2A C154 was tested, and the “log2 mean competition ratio” value ([1]; 50 µM) was 0.2, the “log2 mean competition ratio” value ([1]; 200 µM) was -0.0551 and the “log2 mean competition ratio” value ([2]; 50 µM) was -0.0933. For the same target, the “log2 mean competition ratio” value ([2]; 200 µM) was 0.0604.
In the case of PRPF4 C441 (UniProt O43172), the “log2 mean competition ratio” value ([1]; 50 µM) is reported as 0.163, the “log2 mean competition ratio” value ([1]; 200 µM) is reported as -0.0477 and the “log2 mean competition ratio” value ([2]; 50 µM) is reported as 0.57. The “log2 mean competition ratio” value ([2]; 200 µM) was -0.0704.
In the case of PRKCB C586 (UniProt P05771), the “log2 mean competition ratio” value ([1]; 50 µM) is reported as -0.134, the “log2 mean competition ratio” value ([1]; 200 µM) is reported as -0.084 and the “log2 mean competition ratio” value ([2]; 50 µM) is reported as -0.295. The “log2 mean competition ratio” value ([2]; 200 µM) was -0.108.
With PRPF6 C604 (UniProt O94906) the “log2 mean competition ratio” value ([1]; 50 µM) was 0.717, the “log2 mean competition ratio” value ([1]; 200 µM) was -0.0599 and the “log2 mean competition ratio” value ([2]; 50 µM) was 0.556. The “log2 mean competition ratio” value ([2]; 200 µM) was -0.221.
In the case of PRKCD C393 (UniProt Q05655), the “log2 mean competition ratio” value ([1]; 50 µM) is reported as -0.37, the “log2 mean competition ratio” value ([1]; 200 µM) is reported as -0.293 and the “log2 mean competition ratio” value ([2]; 50 µM) is reported as 0.0172. The “log2 mean competition ratio” value ([2]; 200 µM) was -0.298.
For POLR2M C82, the “log2 mean competition ratio” value ([1]; 50 µM) was 0.34, the “log2 mean competition ratio” value ([1]; 200 µM) was 0.0979 and the “log2 mean competition ratio” value ([2]; 50 µM) was 0.251. The “log2 mean competition ratio” value ([2]; 200 µM) was 0.284.
In the case of PPIL4 C426 (UniProt Q8WUA2), the “log2 mean competition ratio” value ([2]; 50 µM) is reported as 0.065 and the “log2 mean competition ratio” value ([2]; 200 µM) is reported as -0.019.
PRR14L C1224 (UniProt Q5THK1) was tested, and the “log2 mean competition ratio” value ([2]; 50 µM) was 0.00053 and the “log2 mean competition ratio” value ([2]; 200 µM) was 0.0216.
In the case of PPP6C C129 (UniProt O00743), the “log2 mean competition ratio” value ([1]; 50 µM) is reported as -0.0624, the “log2 mean competition ratio” value ([1]; 200 µM) is reported as 0.0208 and the “log2 mean competition ratio” value ([2]; 50 µM) is reported as -0.193. The “log2 mean competition ratio” value ([2]; 200 µM) was -0.179.
With POLRMT C119 (UniProt O00411) the “log2 mean competition ratio” value ([1]; 50 µM) was 0.099, the “log2 mean competition ratio” value ([1]; 200 µM) was 0.343 and the “log2 mean competition ratio” value ([2]; 50 µM) was 0.491. The “log2 mean competition ratio” value ([2]; 200 µM) was 0.483.
PRDM16 C771 was tested, and the “log2 mean competition ratio” value ([1]; 50 µM) was 0.0982, the “log2 mean competition ratio” value ([1]; 200 µM) was 0.127 and the “log2 mean competition ratio” value ([2]; 50 µM) was -0.394. For the same target, the “log2 mean competition ratio” value ([2]; 200 µM) was 0.424.
In the case of PREP C25, the “log2 mean competition ratio” value ([2]; 50 µM) is reported as 0.565 and the “log2 mean competition ratio” value ([2]; 200 µM) is reported as -0.00632.
In the case of POLR2B C357 (UniProt P30876), the “log2 mean competition ratio” value ([2]; 50 µM) is reported as -0.324 and the “log2 mean competition ratio” value ([2]; 200 µM) is reported as -0.0494.
PPIP5K2 C900 was tested, and the “log2 mean competition ratio” value ([2]; 50 µM) was -0.34 and the “log2 mean competition ratio” value ([2]; 200 µM) was -0.164.
PPP2R5A C72 (UniProt Q15172) was tested, and the “log2 mean competition ratio” value ([1]; 50 µM) was -0.177, the “log2 mean competition ratio” value ([1]; 200 µM) was 0.364 and the “log2 mean competition ratio” value ([2]; 50 µM) was -0.0269. The “log2 mean competition ratio” value ([2]; 200 µM) was 0.306.
With PPCDC C173 (UniProt Q96CD2) the “log2 mean competition ratio” value ([2]; 50 µM) was 0.276 and the “log2 mean competition ratio” value ([2]; 200 µM) was -0.131.
With PRKDC C491 (UniProt P78527) the “log2 mean competition ratio” value ([2]; 50 µM) was -0.228 and the “log2 mean competition ratio” value ([2]; 200 µM) was -0.425.
“PPP6R3_(C830,C830,C836,C836) (UniProt Q5H9R7)” was tested, and the “log2 mean competition ratio” value ([2]; 50 µM) was -0.474 and the “log2 mean competition ratio” value ([2]; 200 µM) was 0.00661.
PRPS1 C41 was tested, and the “log2 mean competition ratio” value ([2]; 50 µM) was 0.11 and the “log2 mean competition ratio” value ([2]; 200 µM) was -0.377.
For POLR3A C883 (UniProt O14802), the “log2 mean competition ratio” value ([2]; 50 µM) was 0.118 and the “log2 mean competition ratio” value ([2]; 200 µM) was -0.173.
In the case of PPM1K C97, the “log2 mean competition ratio” value ([1]; 50 µM) is reported as -0.0964, the “log2 mean competition ratio” value ([1]; 200 µM) is reported as -0.0519 and the “log2 mean competition ratio” value ([2]; 50 µM) is reported as -0.359. For the same target, the “log2 mean competition ratio” value ([2]; 200 µM) was -0.0258.
PRIM2 C367 (UniProt P49643) was tested, and the “log2 mean competition ratio” value ([1]; 50 µM) was -0.0328, the “log2 mean competition ratio” value ([1]; 200 µM) was 0.271 and the “log2 mean competition ratio” value ([2]; 50 µM) was -0.109. The “log2 mean competition ratio” value ([2]; 200 µM) was 0.345.
